Data on 19 compounds can be found in PubChem BioAssay AID330 (DTP/NCI, 2004).

The assay concerns P388 leukemia ip, CD2F1 mice, survival T/C. Kind of assay: NCI In Vivo Anticancer Drug Screen. Data for tumor model P388 Leukemia (intraperitoneal) in CD2F1 (CDF1) mice. As to conditions: T/C endpoint: median survival time, higher T/C = longer survival.
The mark [1] stands for this setting: dose: 240.0 mg/kg/injection, schedule: Q01DX005 (ip), vehicle: Klucel (hydroxypropylcellulose) (HPC).
Setting [2] is: dose: 100.0 mg/kg/injection, schedule: Q01DX005 (ip), vehicle: saline with Tween-80.
Where [3] appears, read: dose: 200.0 mg/kg/injection, schedule: Q01DX005 (ip), vehicle: saline with Tween-80.
[4] abbreviates: dose: 100.0 mg/kg/injection, schedule: Q01DX005 (ip), vehicle: Klucel (hydroxypropylcellulose) (HPC).
Where [5] appears, read: dose: 200.0 mg/kg/injection, schedule: Q01DX005 (ip), vehicle: Klucel (hydroxypropylcellulose) (HPC).
Where [6] appears, read: dose: 50.0 mg/kg/injection, schedule: Q01DX005 (ip), vehicle: Klucel (hydroxypropylcellulose) (HPC).
[7] abbreviates: dose: 120.0 mg/kg/injection, schedule: Q01DX005 (ip), vehicle: saline with Tween-80.
The mark [8] stands for this setting: dose: 400.0 mg/kg/injection, schedule: Q01DX005 (ip), vehicle: Klucel (hydroxypropylcellulose) (HPC).

The list shows only some results of the screen, not a fair sample: it is rich in T/C values a quarter to a half above the control, in often repeated tests (any T/C) and in doses without a T/C. Other doses and runs of a compound stand elsewhere. T/C gives the treated animals as a percentage of the vehicle group. Some entries give survivors of the animals treated and no T/C: the source holds a T/C of zero for them, seemingly a mark for toxic or unscored doses. Some survivor counts are full or nearly so, which does not show that the dose was tolerated: survival well below the control is almost never listed, so the zero probably covers shortened survival too. Counts of survivors are from the toxicity check (mostly the fifth day) where no day follows; animals may have died later. Schedule codes are those of the source, read here as Q, the interval in days (D) or hours (H), X, the number of doses. Some entries hold several experiments; the values are given in rising order. For survival time, the PubChem record calls one and a half times the control and up active, and a quarter to a half above the control has no call in these data; cut-offs in other NCI protocols can differ. Signs of the kind (2×) say how often a value occurs here.

As for `O=C1c2ccccc2C(=O)c2cc3c(cc21)OCO3`, the survivor count under setting [1] was 6 of 6.

For the compound `CCCCCc1cc(O)c2c(c1)OC(C)(C)[C@@H]1CCC(C)=C[C@@H]21`, under “dose: 512.0 mg/kg/injection, schedule: Q01DX005 (iv), vehicle: other”, the survivor count was 3 of 6.

Take `O=C1Nc2ccccc2N=NN1CCCl`: the T/C is, setting by setting: (dose: 50.0 mg/kg/injection, schedule: Q01DX005 (ip), vehicle: saline with Tween-80) 125 % of control; under setting [2], 135 % of control. Besides, under setting [3], the survivor count is reported as 5 of 6.

Regarding `CC1(C)COC(=O)C(C#N)=C1CBr`, the survivor count was 0 of 6 under setting [4] and 0 of 6 under setting [5].

With `CC1CN=C(c2ccc(NC(=O)NCCCCCCCCCCCCNC(=O)Nc3ccc(C4=NCC(C)N4)cc3)cc2)N1` (stereo not drawn), under setting [3], the survivor count is 1 of 6.

Turning to `CCOC(=O)N1CCNCC1`, for the setting “dose: 400.0 mg/kg/injection, schedule: Q04DX003 (ip), vehicle: saline”, the survivor count is 2 of 6.

Turning to `O=C(CC(c1ccccc1)C(C(=O)O)c1ccc(Br)cc1)c1ccccc1` (stereo not drawn), the survivor count was 5 of 5 under setting [6], 5 of 5 under setting [4] and 4 of 5 under setting [5].

As to `CN(C)C1C(O)C2Oc3c(cc(O)c4c3C(=O)c3cc5c(c(O)c3C4=O)C(N3CCCC3)CC(C)(O)C5)C(C)(O2)C1O` (stereo not drawn), the T/C runs as follows: (dose: 25.0 mg/kg/injection, schedule: Q01DX009 (ip), vehicle: other) 130 % of control; (dose: 50.0 mg/kg/injection, schedule: Q01DX009 (ip), vehicle: other) 140 % of control.

As to `CC12CCC3C(CCC4=CC(OC5OC(CO)C(O)C(O)C5O)CCC43C=O)C1(O)CCC2c1ccc(=O)oc1` (stereo not drawn), under “dose: 0.06 mg/kg/injection, schedule: Q01DX009 (ip), vehicle: saline + alcohol”, the survivor count is listed as 2 of 4.

For the compound `Cc1sc2c(c1C)c(=O)[nH]c1c(C#N)c(-c3ccc(Cl)cc3)cn12`, under setting [7], the survivor count was 5 of 6.

Take `C=CCOc1cc2c(cc1C(C)c1ccc(OC)cc1)OCO2` (stereo not drawn): the T/C runs as follows: under setting [6], 108, 113 (2×), 117 % of control; (dose: 50.0 mg/kg/injection, schedule: Q01DX005 (ip), vehicle: Klucel + Tween-80) 125 % of control; under setting [4], 117, 120, 122, 137 % of control; (dose: 100.0 mg/kg/injection, schedule: Q01DX005 (ip), vehicle: Klucel + Tween-80) 136 % of control; under setting [5], 120, 138, 141, 188 % of control; under setting [8], 139 % of control. Moreover, where the note is “dose: 400.0 mg/kg/injection, schedule: Q01DX005 (ip), vehicle: saline with Tween-80”, the T/C was 127 and 128 % of control. In addition, the survivor count under setting [8] is 4 of 6 and 4 of 5; the survivor count (dose: 400.0 mg/kg/injection, schedule: Q01DX005 (ip), vehicle: Klucel + Tween-80) is reported as 6 of 6; the survivor count (dose: 800.0 mg/kg/injection, schedule: Q01DX005 (ip), vehicle: Klucel + Tween-80) is recorded as 1 of 6; the survivor count (dose: 2000.0 mg/kg/injection, schedule: Q01DX001 (ip), vehicle: saline with Tween-80) is reported as 5 of 6.

For `O=C(NCCCC1NC(=O)/C(=C(O)/C=C/C=C/c2ccccc2)C1=O)OCc1ccccc1` (stereo not drawn), the survivor count under setting [2] is given as 6 of 6.

On to `CCO/C=C1/N=C(c2ccc(OC)c(OC)c2)OC1=O`, for which the survivor count is 6 of 6 under setting [7] and 1 of 6 (dose: 240.0 mg/kg/injection, schedule: Q01DX005 (ip), vehicle: saline with Tween-80).

`COC(=O)C(O)(C(=O)OC)C1=C(N)C(=O)c2ccccc2C1=O`: where the note is “dose: 200.0 mg/kg/injection, schedule: Q01DX005 (ip), vehicle: saline”, the survivor count was 0 of 6.

Take `O=C1c2ccccc2C(=O)N1CCc1ccccc1Br`: under setting [5], the survivor count was 5 of 5.

`Cc1ccc(C(=N)c2ccccc2Cc2cccc3ccccc23)c(C)c1`: the survivor count (dose: 400.0 mg/kg/injection, schedule: Q01DX009 (ip), vehicle: saline with Tween-80) is listed as 5 of 6.

In the case of `CC1CC[N-]C(C)C1.CN(C)C=O.[Cl][Pt][Cl]` (stereo not drawn), the T/C was 140 % of control (dose: 6.25 mg/kg/injection, schedule: Q01DX009 (ip), vehicle: saline with Tween-80); 130 and 136 % of control (dose: 12.5 mg/kg/injection, schedule: Q01DX009 (ip), vehicle: saline with Tween-80). Also, the survivor count reads like this: (dose: 25.0 mg/kg/injection, schedule: Q01DX009 (ip), vehicle: saline with Tween-80) 5 of 6 and 6 of 6; (dose: 50.0 mg/kg/injection, schedule: Q01DX009 (ip), vehicle: saline with Tween-80) 0 of 6 and 3 of 6; (dose: 100.0 mg/kg/injection, schedule: Q01DX009 (ip), vehicle: saline with Tween-80) 0 of 6; (dose: 200.0 mg/kg/injection, schedule: Q01DX009 (ip), vehicle: saline with Tween-80) 0 of 6.

`CC[n+]1cccc(C(=O)c2ccccc2)c1`: the survivor count (dose: 60.0 mg/kg/injection, schedule: Q01DX005 (ip), vehicle: saline) was 0 of 6; the survivor count (dose: 120.0 mg/kg/injection, schedule: Q01DX005 (ip), vehicle: saline) is listed as 0 of 6; the survivor count (dose: 240.0 mg/kg/injection, schedule: Q01DX005 (ip), vehicle: saline) is on record as 0 of 6.

For `CCOC(=O)c1nnc(-c2ccccc2)nc1Cl`, under setting [1], the survivor count is 0 of 6.
